Results are given in words; binding and its absence hold for the method and conditions named. Binding seen in cells or lysates may run through a third protein. Some entries that bind do so weakly or less than the wild type.
What was measured:
[1] = molecular target: human GLP-1 receptor (hGLP-1R) (human) (UniProt P43220); assay: FRET or BRET; as a1, with NNC5840 as the ligand that stimulates the receptor
[2] = molecular target: human GLP-1 receptor (hGLP-1R) (human) (UniProt P43220); assay: FRET or BRET; live HEK293T cells transiently transfected with hGLP-1R constructs and sensors; ligand-induced recruitment after native GLP-1(7-36), semaglutide or NNC5840; BRET read every 60 s, iAUC for dose-response; PBS with coelenterazine-h or NanoGlo

By UniProt entry, the sequences of proteins in these tests, tags left out. Residues count along the entry.
UniProt P43220, residues 24-463: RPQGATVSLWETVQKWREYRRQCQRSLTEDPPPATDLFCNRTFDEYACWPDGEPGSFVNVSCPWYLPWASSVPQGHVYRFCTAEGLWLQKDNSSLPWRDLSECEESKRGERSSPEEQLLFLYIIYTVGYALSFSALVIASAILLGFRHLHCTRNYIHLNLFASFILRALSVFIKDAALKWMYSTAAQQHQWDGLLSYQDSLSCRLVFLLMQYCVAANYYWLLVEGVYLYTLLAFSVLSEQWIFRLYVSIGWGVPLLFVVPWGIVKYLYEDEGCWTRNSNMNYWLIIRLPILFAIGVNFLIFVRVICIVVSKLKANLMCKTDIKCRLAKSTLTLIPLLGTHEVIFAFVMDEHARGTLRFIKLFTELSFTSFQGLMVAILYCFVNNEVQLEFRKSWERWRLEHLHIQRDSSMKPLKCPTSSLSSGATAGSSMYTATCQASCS
UniProt P32121: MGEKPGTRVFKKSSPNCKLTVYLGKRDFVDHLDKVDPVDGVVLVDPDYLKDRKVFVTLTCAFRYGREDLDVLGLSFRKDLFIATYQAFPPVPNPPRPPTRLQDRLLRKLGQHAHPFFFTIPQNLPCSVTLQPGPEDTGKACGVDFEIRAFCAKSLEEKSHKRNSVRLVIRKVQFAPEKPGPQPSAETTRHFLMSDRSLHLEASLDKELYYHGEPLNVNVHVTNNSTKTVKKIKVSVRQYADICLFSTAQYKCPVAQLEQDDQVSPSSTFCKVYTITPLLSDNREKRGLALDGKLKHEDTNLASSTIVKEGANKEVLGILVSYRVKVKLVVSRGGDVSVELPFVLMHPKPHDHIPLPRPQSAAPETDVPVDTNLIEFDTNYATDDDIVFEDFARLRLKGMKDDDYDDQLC

binding [1]: binds weakly
binding [2]: binds
Substance: β-arrestin 2 (from UniProt P32121 1-409)

— publication PMC12398856, “A GLP-1 analogue optimized for cAMP-biased signaling improves weight loss in obese mice” (Molecular Metabolism, 2025)
